# Results deposited as PubChem BioAssay AID720710 (VTT Finland, 2013)
# Test: 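Knock-downs that leave cyclin E-high cells sensitive to replication stress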 (primary screen)
# Cell system: human U-2 OS bone cancer cells, parental and a cyclin E (CCNE1) overexpressing line
# Knock-down reagent: single siRNA against human genes, 1 µM siRNA in the printed spot mix
# Duration: 67 h
# Challenge: half the arrays: hydroxyurea 2 mM for 16 h, then 3 h recovery; other arrays untreated
# Measurement: 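EdU click signal imaged per DAPI-stained nucleus at 67 h; each spot divided by its subgrid median, then z-scored relative to non-targeting control spots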
# Reading the numbers: EdU z-score, cyclin E line, hydroxyurea and EdU z-score, parental, hydroxyurea and EdU z-score, cyclin E line, untreated and EdU z-score, parental, untreated: higher = more DNA synthesis than non-targeting controls
# This is one part, drawn at random, of about 1,380 reagents. 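One array per condition without replicates; hydroxyurea arrays received 2 mM for 16 h plus 3 h recovery.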
gene symbol,PubChem SID,"EdU z-score, cyclin E line, hydroxyurea","EdU z-score, parental, hydroxyurea","EdU z-score, cyclin E line, untreated","EdU z-score, parental, untreated"
PMS2P5,SID164222490,-1.2,-1.53,-0.32,0.0445
PMS2P5,SID164222491,-1.19,-1.36,-0.0585,0.482
LOC730429,SID164222258,-2.9,-0.0664,-2.47,-0.323
LOC730429,SID164222259,-1.29,0.503,-1.84,-0.301
LOC730394,SID164222256,-0.357,-0.172,-2.72,-3.09
LOC730394,SID164222257,-0.0482,3.07,-0.331,-1.31
BRCA1,SID164221728,-0.232,-3.9,-0.297,0.682
BRCA1,SID164221729,-0.189,-0.0917,1.14,1.18
CBX7,SID164221770,-1.42,-1.79,-6.58,-0.514
CBX7,SID164221771,-0.398,3.66,-2.04,-0.0436
KDM4A,SID164222188,-2.06,0.508,-0.808,-1.64
KDM4A,SID164222189,0.0199,1.61,-0.457,1.42
H2BC21,SID164222142,-0.209,1.78,0.0942,-1.92
H2BC21,SID164222143,0.684,1.9,0.64,0.676
SUV39H2,SID164222852,-0.713,-0.653,-2.95,-1.15
SUV39H2,SID164222853,0.673,1.28,-0.154,-0.299
MLH3,SID164222310,-0.0902,1.31,-0.123,0.136
MLH3,SID164222311,0.415,2.38,0.993,2.4
CHD3,SID164221828,1.55,-0.644,-1.08,-1.19
CHD3,SID164221829,2.79,1.98,-0.149,-0.955
RAD21,SID164222586,-1.17,-2.34,-2.93,-1.17
RAD21,SID164222587,-0.243,1.19,-0.966,0.0755
TCF7L1,SID164222860,-1.7,-0.608,-0.827,-3.63
TCF7L1,SID164222861,1.28,2.98,0.358,0.822
